Reference: the supplement of paper PMC10849652
This is one part of the list.

Chains of the proteins cited; added tags and fusions are not shown. Lines headed by an entry give the natural chain unless they say otherwise; changes in a name come on top.
UniProt Q96RU2: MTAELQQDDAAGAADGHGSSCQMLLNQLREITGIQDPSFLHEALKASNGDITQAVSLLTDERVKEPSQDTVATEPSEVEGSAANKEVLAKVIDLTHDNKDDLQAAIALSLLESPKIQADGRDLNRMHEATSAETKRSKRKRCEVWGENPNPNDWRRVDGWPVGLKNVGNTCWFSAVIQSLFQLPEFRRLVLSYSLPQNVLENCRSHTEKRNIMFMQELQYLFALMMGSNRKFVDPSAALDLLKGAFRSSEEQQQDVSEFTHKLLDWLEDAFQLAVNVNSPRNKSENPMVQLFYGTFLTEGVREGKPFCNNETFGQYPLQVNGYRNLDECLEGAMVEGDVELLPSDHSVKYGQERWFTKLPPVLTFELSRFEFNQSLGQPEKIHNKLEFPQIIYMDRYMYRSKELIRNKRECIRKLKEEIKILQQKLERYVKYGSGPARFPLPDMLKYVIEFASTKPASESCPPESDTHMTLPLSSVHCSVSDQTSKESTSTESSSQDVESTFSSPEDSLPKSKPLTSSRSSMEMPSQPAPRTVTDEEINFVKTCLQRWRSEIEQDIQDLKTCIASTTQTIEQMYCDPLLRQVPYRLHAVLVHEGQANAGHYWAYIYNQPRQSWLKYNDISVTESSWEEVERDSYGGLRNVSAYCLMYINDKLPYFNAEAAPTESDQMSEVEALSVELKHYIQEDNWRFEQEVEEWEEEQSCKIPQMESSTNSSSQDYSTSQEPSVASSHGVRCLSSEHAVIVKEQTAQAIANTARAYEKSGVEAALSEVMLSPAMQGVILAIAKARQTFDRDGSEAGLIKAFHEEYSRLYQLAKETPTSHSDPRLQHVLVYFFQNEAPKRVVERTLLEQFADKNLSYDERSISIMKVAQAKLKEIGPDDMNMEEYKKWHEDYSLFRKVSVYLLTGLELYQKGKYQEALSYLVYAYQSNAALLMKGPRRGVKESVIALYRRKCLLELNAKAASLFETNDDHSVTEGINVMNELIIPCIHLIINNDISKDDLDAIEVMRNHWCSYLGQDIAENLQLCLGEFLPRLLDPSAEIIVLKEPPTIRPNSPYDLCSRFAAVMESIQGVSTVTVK
UniProt Q93009, whole entry, looked up: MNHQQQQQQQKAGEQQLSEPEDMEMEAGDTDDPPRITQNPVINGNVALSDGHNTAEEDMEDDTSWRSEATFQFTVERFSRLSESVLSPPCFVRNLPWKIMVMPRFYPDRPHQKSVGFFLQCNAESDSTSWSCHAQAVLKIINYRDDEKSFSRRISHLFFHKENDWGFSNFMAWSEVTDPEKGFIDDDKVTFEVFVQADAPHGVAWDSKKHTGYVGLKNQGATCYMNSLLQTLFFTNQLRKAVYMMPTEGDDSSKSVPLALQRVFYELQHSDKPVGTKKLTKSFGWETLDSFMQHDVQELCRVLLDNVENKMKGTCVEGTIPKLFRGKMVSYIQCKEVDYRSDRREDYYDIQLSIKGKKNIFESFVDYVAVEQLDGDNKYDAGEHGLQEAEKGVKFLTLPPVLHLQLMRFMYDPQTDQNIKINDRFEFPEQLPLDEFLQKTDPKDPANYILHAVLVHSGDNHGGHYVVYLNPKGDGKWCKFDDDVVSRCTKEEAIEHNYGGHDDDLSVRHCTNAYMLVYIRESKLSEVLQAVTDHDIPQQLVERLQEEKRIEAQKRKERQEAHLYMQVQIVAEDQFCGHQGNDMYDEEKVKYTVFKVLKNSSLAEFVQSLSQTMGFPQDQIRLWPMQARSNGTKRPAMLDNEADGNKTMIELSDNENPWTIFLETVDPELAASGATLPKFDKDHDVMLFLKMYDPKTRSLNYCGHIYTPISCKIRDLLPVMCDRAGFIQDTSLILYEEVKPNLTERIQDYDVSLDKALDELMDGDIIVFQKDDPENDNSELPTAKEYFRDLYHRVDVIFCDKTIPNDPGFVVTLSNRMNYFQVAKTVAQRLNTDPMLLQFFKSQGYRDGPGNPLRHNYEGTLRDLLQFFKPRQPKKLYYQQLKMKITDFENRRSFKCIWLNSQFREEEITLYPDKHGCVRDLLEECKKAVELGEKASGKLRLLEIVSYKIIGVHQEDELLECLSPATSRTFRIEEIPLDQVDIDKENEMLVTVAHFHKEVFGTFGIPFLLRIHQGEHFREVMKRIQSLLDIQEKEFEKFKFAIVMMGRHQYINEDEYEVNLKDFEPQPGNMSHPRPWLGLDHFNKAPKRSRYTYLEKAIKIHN
UniProt O14949: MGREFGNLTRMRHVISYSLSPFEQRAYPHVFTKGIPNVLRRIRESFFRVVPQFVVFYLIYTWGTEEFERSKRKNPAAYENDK
UniProt Q9UHP3: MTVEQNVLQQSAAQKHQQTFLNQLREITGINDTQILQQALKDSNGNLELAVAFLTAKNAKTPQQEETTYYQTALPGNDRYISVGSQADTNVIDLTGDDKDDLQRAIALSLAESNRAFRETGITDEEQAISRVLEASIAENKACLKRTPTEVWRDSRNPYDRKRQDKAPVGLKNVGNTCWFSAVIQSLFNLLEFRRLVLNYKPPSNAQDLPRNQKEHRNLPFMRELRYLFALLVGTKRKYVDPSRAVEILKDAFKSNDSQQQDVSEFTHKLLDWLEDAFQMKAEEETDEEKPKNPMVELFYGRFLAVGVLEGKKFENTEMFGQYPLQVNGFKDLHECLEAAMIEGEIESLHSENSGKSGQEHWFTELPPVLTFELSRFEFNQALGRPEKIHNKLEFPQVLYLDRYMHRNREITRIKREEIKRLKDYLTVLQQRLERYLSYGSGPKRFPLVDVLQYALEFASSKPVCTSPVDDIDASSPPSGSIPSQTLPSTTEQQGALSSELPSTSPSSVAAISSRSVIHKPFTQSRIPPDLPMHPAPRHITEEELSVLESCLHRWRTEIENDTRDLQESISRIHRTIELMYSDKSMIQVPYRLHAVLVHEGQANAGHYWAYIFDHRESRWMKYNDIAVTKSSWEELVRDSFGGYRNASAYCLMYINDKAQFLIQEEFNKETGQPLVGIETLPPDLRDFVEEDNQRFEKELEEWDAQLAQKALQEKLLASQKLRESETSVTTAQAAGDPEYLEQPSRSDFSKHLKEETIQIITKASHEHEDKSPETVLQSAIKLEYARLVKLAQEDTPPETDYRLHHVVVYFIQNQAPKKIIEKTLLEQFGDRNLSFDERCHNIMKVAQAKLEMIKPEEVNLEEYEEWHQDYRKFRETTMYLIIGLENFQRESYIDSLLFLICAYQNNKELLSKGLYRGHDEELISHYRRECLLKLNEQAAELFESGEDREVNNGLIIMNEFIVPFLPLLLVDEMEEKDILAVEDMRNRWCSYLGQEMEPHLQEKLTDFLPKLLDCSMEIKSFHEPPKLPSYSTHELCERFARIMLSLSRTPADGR
UniProt P54578: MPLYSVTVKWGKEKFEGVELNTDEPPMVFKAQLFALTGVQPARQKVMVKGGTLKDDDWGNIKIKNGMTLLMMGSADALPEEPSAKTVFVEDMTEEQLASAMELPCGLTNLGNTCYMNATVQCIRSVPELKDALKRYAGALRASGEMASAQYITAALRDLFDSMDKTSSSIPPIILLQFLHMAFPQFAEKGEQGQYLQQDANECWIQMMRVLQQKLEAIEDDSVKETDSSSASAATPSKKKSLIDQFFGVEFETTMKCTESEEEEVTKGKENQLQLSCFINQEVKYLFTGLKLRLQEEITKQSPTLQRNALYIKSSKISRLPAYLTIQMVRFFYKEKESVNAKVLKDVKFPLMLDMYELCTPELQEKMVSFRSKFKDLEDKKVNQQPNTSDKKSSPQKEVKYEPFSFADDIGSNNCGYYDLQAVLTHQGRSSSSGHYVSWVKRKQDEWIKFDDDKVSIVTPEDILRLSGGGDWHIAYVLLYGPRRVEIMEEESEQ
UniProt Q70J99: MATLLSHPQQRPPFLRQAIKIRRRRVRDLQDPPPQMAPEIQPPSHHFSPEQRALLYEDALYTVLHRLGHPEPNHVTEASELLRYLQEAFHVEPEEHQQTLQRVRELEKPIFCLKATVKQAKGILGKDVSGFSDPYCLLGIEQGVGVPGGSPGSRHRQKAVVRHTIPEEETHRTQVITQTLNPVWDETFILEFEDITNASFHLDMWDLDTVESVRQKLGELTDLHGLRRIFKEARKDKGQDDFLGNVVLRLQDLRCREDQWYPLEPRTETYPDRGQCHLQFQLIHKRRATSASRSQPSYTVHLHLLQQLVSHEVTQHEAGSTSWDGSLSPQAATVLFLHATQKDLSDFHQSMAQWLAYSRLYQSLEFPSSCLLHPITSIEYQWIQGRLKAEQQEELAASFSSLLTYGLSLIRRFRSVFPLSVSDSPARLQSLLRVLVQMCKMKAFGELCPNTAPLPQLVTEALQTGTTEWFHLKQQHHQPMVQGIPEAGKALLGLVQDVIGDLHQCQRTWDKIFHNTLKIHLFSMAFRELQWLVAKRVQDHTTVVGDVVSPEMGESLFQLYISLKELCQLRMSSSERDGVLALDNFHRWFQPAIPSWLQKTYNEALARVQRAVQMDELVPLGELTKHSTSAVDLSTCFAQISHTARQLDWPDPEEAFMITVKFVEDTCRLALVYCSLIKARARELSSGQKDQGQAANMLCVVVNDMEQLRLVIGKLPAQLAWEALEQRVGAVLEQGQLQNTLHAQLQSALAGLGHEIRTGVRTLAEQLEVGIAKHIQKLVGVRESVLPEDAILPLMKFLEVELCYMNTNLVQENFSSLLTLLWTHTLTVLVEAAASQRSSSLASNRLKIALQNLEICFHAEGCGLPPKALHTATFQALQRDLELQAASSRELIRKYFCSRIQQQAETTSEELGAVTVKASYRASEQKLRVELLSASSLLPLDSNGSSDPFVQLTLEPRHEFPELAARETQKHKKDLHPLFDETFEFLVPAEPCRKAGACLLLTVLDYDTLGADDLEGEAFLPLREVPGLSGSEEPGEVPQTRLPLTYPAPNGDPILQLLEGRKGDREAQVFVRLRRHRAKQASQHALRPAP
UniProt Q9H1C4: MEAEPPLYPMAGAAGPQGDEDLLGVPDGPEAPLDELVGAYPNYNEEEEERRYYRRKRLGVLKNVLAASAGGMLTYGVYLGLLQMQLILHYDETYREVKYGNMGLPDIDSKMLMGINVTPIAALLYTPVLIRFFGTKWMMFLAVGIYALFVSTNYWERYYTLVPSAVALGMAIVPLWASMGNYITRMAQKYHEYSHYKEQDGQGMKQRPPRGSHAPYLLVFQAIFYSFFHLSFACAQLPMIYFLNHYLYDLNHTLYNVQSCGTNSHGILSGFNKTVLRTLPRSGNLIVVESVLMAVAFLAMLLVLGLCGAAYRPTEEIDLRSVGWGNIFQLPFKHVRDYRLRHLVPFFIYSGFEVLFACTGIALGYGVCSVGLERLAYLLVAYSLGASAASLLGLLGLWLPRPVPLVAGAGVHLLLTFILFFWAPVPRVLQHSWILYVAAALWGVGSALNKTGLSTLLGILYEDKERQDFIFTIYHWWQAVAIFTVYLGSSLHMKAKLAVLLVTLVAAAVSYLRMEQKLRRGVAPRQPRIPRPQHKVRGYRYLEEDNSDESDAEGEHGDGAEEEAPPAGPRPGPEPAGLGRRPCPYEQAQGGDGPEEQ
UniProt Q9Y5J1: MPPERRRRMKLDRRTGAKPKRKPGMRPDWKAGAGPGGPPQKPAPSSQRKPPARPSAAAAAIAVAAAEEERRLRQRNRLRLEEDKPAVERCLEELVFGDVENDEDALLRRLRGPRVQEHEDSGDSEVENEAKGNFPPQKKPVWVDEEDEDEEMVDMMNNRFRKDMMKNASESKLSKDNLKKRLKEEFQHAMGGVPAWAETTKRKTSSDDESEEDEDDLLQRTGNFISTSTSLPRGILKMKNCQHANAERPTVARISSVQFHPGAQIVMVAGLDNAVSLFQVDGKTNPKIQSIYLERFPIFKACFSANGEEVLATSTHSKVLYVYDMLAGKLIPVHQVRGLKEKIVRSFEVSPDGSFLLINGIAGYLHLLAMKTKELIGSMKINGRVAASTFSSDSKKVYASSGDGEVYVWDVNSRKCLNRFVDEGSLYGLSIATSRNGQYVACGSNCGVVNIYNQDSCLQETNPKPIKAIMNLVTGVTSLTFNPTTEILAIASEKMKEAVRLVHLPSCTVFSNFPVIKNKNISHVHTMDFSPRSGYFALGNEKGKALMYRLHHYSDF
UniProt P47985: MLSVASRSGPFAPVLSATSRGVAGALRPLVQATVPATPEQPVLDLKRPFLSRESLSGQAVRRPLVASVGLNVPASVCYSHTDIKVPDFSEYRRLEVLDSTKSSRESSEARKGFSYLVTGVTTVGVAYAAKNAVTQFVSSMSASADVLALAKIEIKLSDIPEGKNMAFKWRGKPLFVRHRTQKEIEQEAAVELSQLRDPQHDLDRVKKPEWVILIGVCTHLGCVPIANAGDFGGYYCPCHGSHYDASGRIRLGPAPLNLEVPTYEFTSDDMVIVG
UniProt P40337, whole entry, looked up: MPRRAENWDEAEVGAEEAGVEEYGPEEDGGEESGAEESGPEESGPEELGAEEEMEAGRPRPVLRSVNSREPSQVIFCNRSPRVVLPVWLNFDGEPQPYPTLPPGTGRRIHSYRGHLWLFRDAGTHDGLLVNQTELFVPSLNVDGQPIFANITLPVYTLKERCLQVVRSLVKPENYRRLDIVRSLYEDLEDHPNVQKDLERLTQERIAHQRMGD

Tests used:
Assay in all cases: log2 fold change, soluble protein after heating vs DMSO (PISA); higher = thermal stabilisation; K562 lysate, 10 uM; active = over 0.2 and 3.5 SD of the protein, either way, in both replicates (recomputed)
erlotinib = compound: C#Cc1cccc(Nc2ncnc3cc(OCCOC)c(OCCOC)cc23)c1 [erlotinib]
In short: (§1)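 A 30 min treatment with 10 μM compound was applied to crude K562 extract at 1 mg/mL protein in PBS pH 7.4 with 1 mM MgCl2. Heating for 3 min spanned 48°C-58°C, after which aliquots were pooled, adjusted to 0.5% NP-40 at 4°C and spun at 21,000xg for 90 min. TMTpro 16plex LC-MS/MS of the supernatant, with channel sums equalised, gave values recorded as log-two fold change in thermal stability against solvent controls, from duplicates.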

[1] = compound: C/C(=N\NC(=O)C1=CC(=CC=C1)S(=O)(=O)N2CCOCC2)/C3=C(C=CC(=C3)Cl)O
In short: as §1

[2] = compound: C1=CC(=CC=C1C2=NC3=C(N2)C=C(C=C3)C(=O)N)OC4=CC=C(C=C4)Cl
In short: as §1

[3] = compound: C1=CC2=C(C=CC(=C2)/C=C\3/C(=O)NC(=NCC4=CC=CS4)S3)N=C1
In short: as §1

[4] = compound: C1=CC2=NC=CN=C2C=C1/C=C/3\C(=O)NC(=O)S3
In short: as §1

[5] = compound: C1=CC=C(C=C1)C2=NC(=C(N2)C3=CC=NC=C3)C4=CC(=C(C=C4)Cl)O
In short: as §1

[6] = compound: C1=CC=C2C(=C1)C3=NNC4=CC=CC(=C43)C2=O
In short: as §1

[7] = compound: C1CCN(C1)C(=O)NC2=CC=CC(=C2)NC3=NC=C(C(=N3)NCCC4=CN=CN4)Br
In short: as §1

[8] = compound: C1CN(CCC1(CC2=CC=C(C=C2)Cl)N)C3=NC=NC4=C3C=CN4
In short: as §1

IRAK-1-4 Inhibitor I = compound: C1COCCN1CCN2C3=CC=CC=C3N=C2NC(=O)C4=CC(=CC=C4)[N+](=O)[O-] [IRAK-1-4 Inhibitor I]
In short: as §1

Measured: log2 fold change

USP28 isoform 2 (UniProt Q96RU2)
inactive: erlotinib -0.036 | [1] -0.056 | [2] -0.003 | [3] 0.019 | [4] 0.007 | [5] 0.021 | [6] -0.014 | [7] 0.037 | [8] 0.044 | IRAK-1-4 Inhibitor I -0.017

USP7 (UniProt Q93009)
inactive: erlotinib 0.004 | [1] 0.001 | [2] -0.005 | [3] -0.005 | [4] -0.013 | [5] -0.017 | [6] -0.031 | [7] -0.002 | [8] -0.019 | IRAK-1-4 Inhibitor I -0.016

VAMP4 (UniProt O75379)
inactive: erlotinib 0.005 | [1] -0.018 | [2] -0.005 | [3] 0.006 | [4] 0.037 | [5] -0.003 | [6] -0.006 | [7] 0.004 | [8] -0.098 | IRAK-1-4 Inhibitor I 0.019

UQCRQ (UniProt O14949)
inactive: erlotinib 0.016 | [1] 0.001 | [2] 0.031 | [3] 0.024 | [4] -0.041 | [5] -0.031 | [6] 0.011 | [7] -0.003 | [8] -0.049 | IRAK-1-4 Inhibitor I 0.007

Fetched one by one from above (two):
USP7 (UniProt Q93009)
inactive: erlotinib 0.004 | [1] 0.001 | [2] -0.005 | [3] -0.005 | [4] -0.013 | [5] -0.017 | [6] -0.031 | [7] -0.002 | [8] -0.019 | IRAK-1-4 Inhibitor I -0.016

UQCRQ (UniProt O14949)
inactive: erlotinib 0.016 | [1] 0.001 | [2] 0.031 | [3] 0.024 | [4] -0.041 | [5] -0.031 | [6] 0.011 | [7] -0.003 | [8] -0.049 | IRAK-1-4 Inhibitor I 0.007

Further records follow:

USP5 isoform 2 (UniProt P45974)
inactive: erlotinib -0.005 | [1] -0.006 | [2] 0.01 | [3] -0.005 | [4] 0.004 | [5] -0.009 | [6] -0.008 | [7] 0.003 | [8] -0.01 | IRAK-1-4 Inhibitor I -0.016

UHRF1BP1 (UniProt Q6BDS2)
inactive: erlotinib -0.021 | [1] -0.025 | [2] 0.08 | [3] -0.019 | [4] -0.015 | [5] -0.01 | [6] 0.006 | [7] 0 | [8] -0.038 | IRAK-1-4 Inhibitor I -0.001

UROS (UniProt P10746)
inactive: erlotinib 0.059 | [1] 0.028 | [2] 0.086 | [3] -0.033 | [4] -0.039 | [5] 0.02 | [6] -0.03 | [7] 0.004 | [8] -0.007 | IRAK-1-4 Inhibitor I 0.003

USP25 (UniProt Q9UHP3)
inactive: erlotinib -0.02 | [1] 0.022 | [2] -0.002 | [3] 0.018 | [4] -0.008 | [5] 0.003 | [6] -0.016 | [7] -0.019 | [8] 0 | IRAK-1-4 Inhibitor I -0.009

UPF1 (UniProt Q92900)
inactive: erlotinib 0.012 | [1] -0.044 | [2] 0.026 | [3] 0.007 | [4] -0.02 | [5] 0.001 | [6] 0.006 | [7] -0.015 | [8] 0.003 | IRAK-1-4 Inhibitor I 0.007

USP48 isoform 8 (UniProt Q86UV5)
inactive: erlotinib 0.001 | [1] -0.059 | [2] -0.011 | [3] -0.008 | [4] 0.005 | [5] 0.02 | [6] -0.02 | [7] 0 | [8] 0.018 | IRAK-1-4 Inhibitor I -0.014

UQCRB (UniProt P14927)
inactive: erlotinib -0.006 | [1] -0.032 | [2] 0.007 | [3] -0.019 | [4] -0.001 | [5] 0.001 | [6] 0.037 | [7] 0.005 | [8] 0.032 | IRAK-1-4 Inhibitor I -0.007

URI1 (UniProt O94763)
inactive: erlotinib -0.023 | [1] -0.055 | [2] 0.035 | [3] -0.056 | [4] -0.022 | [5] -0.012 | [6] -0.021 | [7] 0.025 | [8] -0.023 | IRAK-1-4 Inhibitor I 0.007

USP14 (UniProt P54578)
inactive: erlotinib 0.013 | [1] -0.023 | [2] -0.002 | [3] 0.007 | [4] 0 | [5] 0.005 | [6] -0.021 | [7] -0.01 | [8] -0.001 | IRAK-1-4 Inhibitor I -0.008

VAV1 (UniProt P15498)
inactive: erlotinib 0.02 | [1] 0.081 | [2] -0.022 | [3] 0.001 | [4] -0.043 | [5] 0.037 | [6] -0.082 | [7] -0.004 | [8] -0.002 | IRAK-1-4 Inhibitor I -0.009

UNC13D (UniProt Q70J99)
inactive: erlotinib 0.019 | [1] 0.023 | [2] -0.049 | [3] 0.02 | [4] 0.025 | [5] -0.007 | [6] -0.009 | [7] 0.005 | [8] 0.013 | IRAK-1-4 Inhibitor I 0.022

USP24 (UniProt Q9UPU5)
inactive: erlotinib -0.004 | [1] 0.012 | [2] -0.014 | [3] 0.022 | [4] 0.006 | [5] -0.021 | [6] -0.032 | [7] -0.016 | [8] 0 | IRAK-1-4 Inhibitor I -0.017

USP22 (UniProt Q9UPT9)
inactive: erlotinib 0.072 | [1] 0.019 | [2] -0.025 | [3] 0.048 | [4] -0.022 | [5] -0.003 | [6] -0.013 | [7] -0.021 | [8] 0.004 | IRAK-1-4 Inhibitor I -0.005

UNC93B1 (UniProt Q9H1C4)
inactive: erlotinib -0.086 | [1] -0.057 | [2] 0.055 | [3] -0.036 | [4] 0.18 | [5] 0.031 | [6] 0.012 | [7] -0.057 | [8] -0.103 | IRAK-1-4 Inhibitor I 0.052

USP48 (UniProt Q86UV5)
inactive: erlotinib 0.022 | [1] 0.001 | [2] -0.015 | [3] -0.051 | [4] 0.006 | [5] 0.001 | [6] 0.049 | [7] -0.033 | [8] 0.013 | IRAK-1-4 Inhibitor I -0.026

UTP18 (UniProt Q9Y5J1)
inactive: erlotinib 0.055 | [1] 0.072 | [2] 0.051 | [3] -0.056 | [4] 0.129 | [5] 0.038 | [6] -0.068 | [7] -0.122 | [8] 0.107 | IRAK-1-4 Inhibitor I -0.031

USP13 (UniProt Q92995)
inactive: erlotinib -0.026 | [1] 0.005 | [2] 0.001 | [3] 0.036 | [4] 0.021 | [5] 0.009 | [6] 0.016 | [7] -0.011 | [8] -0.007 | IRAK-1-4 Inhibitor I -0.003

USP32 (UniProt Q8NFA0)
inactive: erlotinib -0.037 | [1] -0.088 | [2] 0.069 | [3] 0.037 | [4] 0.082 | [5] -0.015 | [6] -0.005 | [7] -0.006 | [8] 0.015 | IRAK-1-4 Inhibitor I 0.016

VDAC1 (UniProt P21796)
inactive: erlotinib -0.001 | [1] -0.007 | [2] -0.001 | [3] -0.013 | [4] 0.016 | [5] 0 | [6] 0.021 | [7] 0.009 | [8] 0.004 | IRAK-1-4 Inhibitor I 0.026

UQCRC1 (UniProt P31930)
inactive: erlotinib 0.005 | [1] -0.006 | [2] -0.002 | [3] -0.008 | [4] -0.005 | [5] -0.004 | [6] -0.023 | [7] 0.004 | [8] 0.014 | IRAK-1-4 Inhibitor I -0.004

UGDH (UniProt O60701)
inactive: erlotinib 0.002 | [1] 0.046 | [2] -0.02 | [3] -0.009 | [4] 0.02 | [5] -0.041 | [6] -0.051 | [7] -0.004 | [8] -0.052 | IRAK-1-4 Inhibitor I -0.053

VAC14 (UniProt Q08AM6)
inactive: erlotinib -0.007 | [1] 0.02 | [2] -0.004 | [3] 0.032 | [4] 0.024 | [5] -0.006 | [6] -0.023 | [7] 0.006 | [8] 0.015 | IRAK-1-4 Inhibitor I 0.024

USP39 (UniProt Q53GS9)
inactive: erlotinib -0.001 | [1] 0.009 | [2] -0.004 | [3] -0.018 | [4] -0.027 | [5] -0.016 | [6] -0.007 | [7] -0.001 | [8] 0.012 | IRAK-1-4 Inhibitor I 0.005

UQCRFS1 (UniProt P47985)
inactive: erlotinib 0.001 | [1] -0.019 | [2] -0.004 | [3] -0.035 | [4] -0.018 | [5] -0.004 | [6] 0.031 | [7] 0.078 | [8] 0.015 | IRAK-1-4 Inhibitor I -0.004

VHL (UniProt P40337)
inactive: erlotinib 0.088 | [1] 0.034 | [2] -0.016 | [3] 0.059 | [4] 0.032 | [5] -0.09 | [6] -0.003 | [7] -0.007 | [8] -0.107 | IRAK-1-4 Inhibitor I 0.02
